Data as given in patent publication US20240270803A1 (Daiichi Sankyo, published 2024).
Changes are numbered by the printed parent chain. Results are given in words; binding and its absence hold for the method and conditions named. Some results given as binding are weak or reduced against the parent protein; the word gives no strength. One block for each binder: values may come before it.

Molecular target: HTRA1 protease domain HTRA1 (cat) (human)
Assay: immunoprecipitation method: TALON resin capture of His tag-fused HTRA1 (cat), SDS-PAGE

binding: binds
B1: peptide derivative H322AT (designed binder)
chain: DPQFGLFSKYRTPNCSQHEGMACYALYEPVCGSDMSTYANECTLCMKIREGGHNIKIIRNGPCGG

binding: binds
B2: peptide derivative H321AT (designed binder)
chain: B1 chain with Q17D, H18F, E19D, L26F

binding: binds
B3: peptide H308 (designed binder)
chain: B1 chain with Q17D, E19A, Y24V, A39E, T43V
